The target of test [1] is EP2, MamE PDZ2 domain as 6xHis-MBP fusion (Magnetospirillum magneticum AMB-1). Description: phage display selection + ELISA.
For test [2], the target named is EP1, MamE PDZ1 domain as 6xHis-MBP fusion (Magnetospirillum magneticum AMB-1). Description: phage display selection + ELISA. In general terms: ELISA stands for enzyme-linked immunosorbent assay.

No constants are given. Whether binding was seen depends on the method and setting. A result given as binding can be weak or reduced; the word gives no strength.

B1: phage-displayed peptide that dominated the selection on MamE PDZ2 (peptide)
peptide: MEDYGIFMTSPEGPWA
For B1, the binding entry in test [1] was “binds”.

B2: phage-displayed peptide that dominated the selection on MamE PDZ1 (peptide)
peptide: WSQEMEDWFWQMPLSG
For the molecule B2, the binding result in test [2] is “binds”.

The record behind these values is publication doi:10.1101/047555.
